One molecule from paper PMC8525514 can be followed below.

The target of experiment [1] is T1, RPN10_38GA39 > HS (m1), yeast two-hybrid fusion (A. thaliana) (UniProt P55034).
T1 sequence: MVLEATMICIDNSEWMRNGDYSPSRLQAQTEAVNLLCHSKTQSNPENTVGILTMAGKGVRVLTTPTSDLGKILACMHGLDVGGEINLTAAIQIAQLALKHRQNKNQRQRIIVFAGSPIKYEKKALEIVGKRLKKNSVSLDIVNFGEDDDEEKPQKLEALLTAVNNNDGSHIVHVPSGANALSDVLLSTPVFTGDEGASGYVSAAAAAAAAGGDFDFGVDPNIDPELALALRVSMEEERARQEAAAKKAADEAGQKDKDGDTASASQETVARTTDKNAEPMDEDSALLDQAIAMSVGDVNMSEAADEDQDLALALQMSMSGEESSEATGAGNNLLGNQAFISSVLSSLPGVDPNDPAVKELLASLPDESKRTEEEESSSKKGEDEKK
The experiment in a line: two-hybrid; directed assays, Matchmaker Gold (Clontech) or DUALhybrid (Dualsystems Biotech) system; growth on -L-W-H-A medium, 28°C, 5 days.

Experiment [2] addresses T2, RPN10_56GKG58 > K (m2), yeast two-hybrid fusion (A. thaliana) (UniProt P55034).
T2 sequence: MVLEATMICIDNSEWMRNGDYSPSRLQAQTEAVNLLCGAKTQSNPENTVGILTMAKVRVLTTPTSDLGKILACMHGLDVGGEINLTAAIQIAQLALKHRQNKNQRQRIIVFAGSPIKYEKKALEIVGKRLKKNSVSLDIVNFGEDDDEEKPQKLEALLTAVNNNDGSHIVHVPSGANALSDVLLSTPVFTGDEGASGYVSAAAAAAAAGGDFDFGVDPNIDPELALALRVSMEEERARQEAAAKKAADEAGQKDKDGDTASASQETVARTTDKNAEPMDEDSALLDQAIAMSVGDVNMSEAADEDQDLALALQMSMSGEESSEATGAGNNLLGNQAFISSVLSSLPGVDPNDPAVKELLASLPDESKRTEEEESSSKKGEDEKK
Described as above.

No constants are given. Whether binding was seen depends on the method and setting. Some binding calls cover weakened binding; strength is not graded here. Where a sequence is shown, tags or fusion partners need not be part of it.

B1: A. thaliana RADIATION …23 (RAD23B) protein, yeast two-hybrid fusion (protein, UniProt Q84L33 1-371)
chain: MKLTVKTLKGSHFEIRVLPSDTIMAVKKNIEDSQGKDNYPCGQQLLIHNGKVLKDETSLVENKVTEEGFLVVMLSKSKSGGSAGQASVQTSSVSQPVSATTSSTKPAAPSTTQSSPVPASPIPAQEQPAAQTDTYGQAASTLVSGSSLEQMVQQIMEMGGGSWDKETVTRALRAAYNNPERAVDYLYSGIPQTAEVAVPVPEAQIAGSGAAPVAPASGGPNSSPLDLFPQETVAAAGSGDLGTLEFLRNNDQFQQLRTMVHSNPQILQPMLQELGKQNPQLLRLIQENQAEFLQLVNEPYEGSDGEGDMFDQPEQEMPHAINVTPAEQEAIQRLEAMGFDRALVIEAFLACDRNEELAANYLLENSGDFED
Consider B1, for which the binding entry in experiment [1] and in experiment [2] was “binds” each time.
